PubChem BioAssay AID1259405 | NCATS – 2018

- Aim: 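Silenced genes that increase secreted GFP made by CHO cells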 (primary screen)
- Cell system: Chinese hamster CHO-K1 ovary cells with stable secreted eGFP expression
- Knock-down reagent: single siRNA against mouse genes, 0.8 pmol siRNA per well (2 µl of 400 nM stock)
- Timing: 3 days
- Read-out: 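Per-well intracellular GFP measured by laser scanning cytometry, plus viability from ATP luminescence, each relative to plate median of non-targeting control wells, in %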
- Reading the numbers: GFP, % of control: higher = more GFP per well, higher productivity; viability (ATP), % of control: higher = more viable cells (more ATP)
- Active means: 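a knock-down is called active if GFP reaches 120% or more of non-targeting control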
The whole screen tested about 50,000 reagents; this is an unselected part. In the full data, about 4,000 (8%) got an active call. 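Mouse siRNA library applied to hamster cells; one well for each siRNA.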 Entries without a mark were called inactive.

Six3 (sine oculis-related homeobox 3) [SID363555004]
- GFP, % of control: 112
- viability (ATP), % of control: 51.4

Six3 (sine oculis-related homeobox 3) [SID363568451]
- GFP, % of control: 72.9
- viability (ATP), % of control: 66.4

Six3 (sine oculis-related homeobox 3) [SID363586510]
- GFP, % of control: 68.3
- viability (ATP), % of control: 77.8

Klf1 (Kruppel-like transcription factor 1 (erythroid)) [SID363573816]
- GFP, % of control: 68.6
- viability (ATP), % of control: 75.9

Klf1 (Kruppel-like transcription factor 1 (erythroid)) [SID363581560]
- GFP, % of control: 103
- viability (ATP), % of control: 82.8

Klf1 (Kruppel-like transcription factor 1 (erythroid)) [SID363584024]
- GFP, % of control: 71.1
- viability (ATP), % of control: 98

Hsd17b8 (hydroxysteroid 17-beta dehydrogenase 8) [SID363575036]
- GFP, % of control: 49.2
- viability (ATP), % of control: 75.8

Hsd17b8 (hydroxysteroid 17-beta dehydrogenase 8) [SID363580668]
- GFP, % of control: 72.2
- viability (ATP), % of control: 66.6

Hsd17b8 (hydroxysteroid 17-beta dehydrogenase 8) [SID363582780]
- GFP, % of control: 74.9
- viability (ATP), % of control: 73.8

Nit2 (nitrilase family, member 2) [SID363545590]
- GFP, % of control: 101
- viability (ATP), % of control: 88

Nit2 (nitrilase family, member 2) [SID363549103]
- GFP, % of control: 71.6
- viability (ATP), % of control: 68.6

Nit2 (nitrilase family, member 2) [SID363562909]
- GFP, % of control: 101
- viability (ATP), % of control: 77.7

Magea9-ps (MAGE family member A9, pseudogene) [SID363562326]
- GFP, % of control: 94.5
- viability (ATP), % of control: 81.3

Magea9-ps (MAGE family member A9, pseudogene) [SID363567464]
- GFP, % of control: 75.7
- viability (ATP), % of control: 84.4

Magea9-ps (MAGE family member A9, pseudogene) [SID363584821]
- GFP, % of control: 75.1
- viability (ATP), % of control: 46.4

Or10d4b (olfactory receptor family 10 subfamily D member 4B) [SID363545066]
- GFP, % of control: 63.5
- viability (ATP), % of control: 61.2

Or10d4b (olfactory receptor family 10 subfamily D member 4B) [SID363551394]
- GFP, % of control: 55.7
- viability (ATP), % of control: 86.9

Or10d4b (olfactory receptor family 10 subfamily D member 4B) [SID363557943]
- GFP, % of control: 53.8
- viability (ATP), % of control: 60.9

Not a retest: entries from further up.
Hsd17b8 (hydroxysteroid 17-beta dehydrogenase 8) [SID363575036]
- GFP, % of control: 49.2
- viability (ATP), % of control: 75.8

Hsd17b8 (hydroxysteroid 17-beta dehydrogenase 8) [SID363580668]
- GFP, % of control: 72.2
- viability (ATP), % of control: 66.6
